No constants are given. Whether binding was seen depends on the method and setting. Some results given as binding are weak or reduced against the parent protein; the word gives no strength.
Tests used:
[1] = target: human Ephrin type-A receptor 2 (EphA2) on EphA2+ tumor cells (human) (UniProt P29317); assay: 3D spheroid assay, fluorescent liposomes at 25 uM phospholipid, IncuCyte ZOOM imaging
[2] = target: human Ephrin type-A receptor 2 (EphA2) on EphA2+ tumor cells (human) (UniProt P29317); assay: 3D spheroid assay, fluorescent liposomes, IncuCyte ZOOM imaging
[3] = target: human Ephrin type-A receptor 2 (EphA2) on EphA2+ tumor cells (human) (UniProt P29317); assay: 3D spheroid assay, fluorescent liposomes, live imaging

Sequences of proteins named here, by UniProt entry; tags and fusion partners are left off. Residues count along the entry.
UniProt P29317, residues 24-976: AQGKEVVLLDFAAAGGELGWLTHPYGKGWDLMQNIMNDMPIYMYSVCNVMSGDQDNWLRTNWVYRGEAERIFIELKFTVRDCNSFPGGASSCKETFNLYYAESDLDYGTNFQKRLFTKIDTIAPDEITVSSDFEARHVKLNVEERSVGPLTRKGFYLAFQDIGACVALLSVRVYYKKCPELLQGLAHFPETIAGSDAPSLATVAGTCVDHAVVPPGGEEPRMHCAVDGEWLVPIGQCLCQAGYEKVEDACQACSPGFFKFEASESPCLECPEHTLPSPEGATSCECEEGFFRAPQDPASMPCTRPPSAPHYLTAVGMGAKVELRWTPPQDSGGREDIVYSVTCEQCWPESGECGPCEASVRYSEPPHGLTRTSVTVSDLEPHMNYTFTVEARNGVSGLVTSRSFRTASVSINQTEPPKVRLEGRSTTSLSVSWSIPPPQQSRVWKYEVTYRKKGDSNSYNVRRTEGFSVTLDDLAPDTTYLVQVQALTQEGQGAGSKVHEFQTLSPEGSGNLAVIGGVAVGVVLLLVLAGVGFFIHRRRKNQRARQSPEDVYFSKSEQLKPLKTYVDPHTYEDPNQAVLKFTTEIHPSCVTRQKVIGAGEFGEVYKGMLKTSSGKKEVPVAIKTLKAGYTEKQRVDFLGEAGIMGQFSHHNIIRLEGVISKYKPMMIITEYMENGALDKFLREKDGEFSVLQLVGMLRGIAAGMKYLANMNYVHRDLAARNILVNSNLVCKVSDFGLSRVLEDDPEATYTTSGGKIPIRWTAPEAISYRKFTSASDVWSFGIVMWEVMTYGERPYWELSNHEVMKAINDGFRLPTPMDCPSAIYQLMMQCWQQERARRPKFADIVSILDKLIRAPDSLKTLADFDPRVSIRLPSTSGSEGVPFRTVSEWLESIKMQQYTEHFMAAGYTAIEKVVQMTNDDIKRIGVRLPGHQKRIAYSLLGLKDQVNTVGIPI

- binding [1]: binds
- binding [2]: binds
- binding [3]: binds
B1: 46scFv-ILs: EphA2-targeted immunoliposome bearing the anti-EphA2 scFv of SEQ ID NO:46 (scFv3) conjugated to PEG-DSPE (scFv)
scFv: QVQLVQSGGGLVQPGGSLRLSCAASGFTFSSYAMHWVRQAPGKGLEWVTVISPDGHNTYYADSVKGRFTISRDNSKNTLYLQMNSLRAEDTAVYYCARASVGATGPFDIWGQGTLVTVSSASTGGGGSGGGGSGGGGSGGGGSSSELTQPPSVSVAPGQTVTITCQGDSLRSYYASWYQQKPGTAPKLLIYGENNRPSGVPDRFSGSSSGTSASLTITGAQAEDEADYYCNSRDSSGTHLTVFGGGTKLTVLGGGSGGC

From patent publication US20180021294A1, “Ephrin Receptor A2 (EPHA2)-Targeted Docetaxel-Generating Nano-Liposome Compositions” (Merrimack Pharmaceuticals, Inc., priority 2016, published 2018)
